PMC11564117
These are yes or no findings as the source states them, for the method shown.

The chains behind the UniProt entries cited, without tags or fusion partners.
UniProt Q13137: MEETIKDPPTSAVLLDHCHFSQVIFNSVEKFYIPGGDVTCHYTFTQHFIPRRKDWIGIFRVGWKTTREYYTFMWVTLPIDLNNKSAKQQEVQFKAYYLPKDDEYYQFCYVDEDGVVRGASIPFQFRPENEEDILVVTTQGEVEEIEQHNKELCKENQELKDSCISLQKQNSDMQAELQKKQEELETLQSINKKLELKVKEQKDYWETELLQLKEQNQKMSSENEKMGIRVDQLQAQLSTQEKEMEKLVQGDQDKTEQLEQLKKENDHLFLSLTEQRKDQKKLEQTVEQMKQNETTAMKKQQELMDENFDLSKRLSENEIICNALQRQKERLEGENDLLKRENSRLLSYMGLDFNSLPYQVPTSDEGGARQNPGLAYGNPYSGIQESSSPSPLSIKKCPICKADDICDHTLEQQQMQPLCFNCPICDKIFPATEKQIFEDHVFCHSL

Target: NAP1 delta-NDP52 (S37K/A44E), bait of the bead assay (human) (UniProt Q9H6S1)
Test: microscopy-based bead assay; Extended Data Fig. 3b: NAP1 wild type or point mutants on beads; NDP52–mCherry, FIP200–GFP and mCherry–TBK1 250 nM; 1 h; confocal imaging; both purified

- binding: no binding (tested: 250 nM)
Substance: mCherry–NDP52 (from UniProt Q13137 1-446)
